No constants are given. Whether binding was seen depends on the method and setting. Binding seen in cells or lysates may run through a third protein. Some binding calls cover weakened binding; strength is not graded here. For some of these results: Where a sequence is shown, tags or fusion partners need not be part of it.

By UniProt entry, the sequences of proteins in these tests, tags left out.
UniProt O35885: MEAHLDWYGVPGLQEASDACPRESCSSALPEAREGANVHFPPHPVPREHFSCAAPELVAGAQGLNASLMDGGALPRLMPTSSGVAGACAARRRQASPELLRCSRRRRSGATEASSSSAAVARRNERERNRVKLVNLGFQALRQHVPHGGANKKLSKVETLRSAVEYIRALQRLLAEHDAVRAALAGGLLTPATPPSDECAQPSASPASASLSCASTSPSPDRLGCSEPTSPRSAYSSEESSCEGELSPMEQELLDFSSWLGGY
UniProt Q99929: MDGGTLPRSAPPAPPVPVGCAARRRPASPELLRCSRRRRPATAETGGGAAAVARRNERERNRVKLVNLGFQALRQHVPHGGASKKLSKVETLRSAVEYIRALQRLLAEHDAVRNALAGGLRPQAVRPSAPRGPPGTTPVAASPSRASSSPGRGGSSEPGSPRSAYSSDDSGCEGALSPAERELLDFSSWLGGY

Test [1] addresses T1, endogenous mSin3a (SW480 cells) (human (endogenous in SW480)) (UniProt Q96ST3).
T1 sequence: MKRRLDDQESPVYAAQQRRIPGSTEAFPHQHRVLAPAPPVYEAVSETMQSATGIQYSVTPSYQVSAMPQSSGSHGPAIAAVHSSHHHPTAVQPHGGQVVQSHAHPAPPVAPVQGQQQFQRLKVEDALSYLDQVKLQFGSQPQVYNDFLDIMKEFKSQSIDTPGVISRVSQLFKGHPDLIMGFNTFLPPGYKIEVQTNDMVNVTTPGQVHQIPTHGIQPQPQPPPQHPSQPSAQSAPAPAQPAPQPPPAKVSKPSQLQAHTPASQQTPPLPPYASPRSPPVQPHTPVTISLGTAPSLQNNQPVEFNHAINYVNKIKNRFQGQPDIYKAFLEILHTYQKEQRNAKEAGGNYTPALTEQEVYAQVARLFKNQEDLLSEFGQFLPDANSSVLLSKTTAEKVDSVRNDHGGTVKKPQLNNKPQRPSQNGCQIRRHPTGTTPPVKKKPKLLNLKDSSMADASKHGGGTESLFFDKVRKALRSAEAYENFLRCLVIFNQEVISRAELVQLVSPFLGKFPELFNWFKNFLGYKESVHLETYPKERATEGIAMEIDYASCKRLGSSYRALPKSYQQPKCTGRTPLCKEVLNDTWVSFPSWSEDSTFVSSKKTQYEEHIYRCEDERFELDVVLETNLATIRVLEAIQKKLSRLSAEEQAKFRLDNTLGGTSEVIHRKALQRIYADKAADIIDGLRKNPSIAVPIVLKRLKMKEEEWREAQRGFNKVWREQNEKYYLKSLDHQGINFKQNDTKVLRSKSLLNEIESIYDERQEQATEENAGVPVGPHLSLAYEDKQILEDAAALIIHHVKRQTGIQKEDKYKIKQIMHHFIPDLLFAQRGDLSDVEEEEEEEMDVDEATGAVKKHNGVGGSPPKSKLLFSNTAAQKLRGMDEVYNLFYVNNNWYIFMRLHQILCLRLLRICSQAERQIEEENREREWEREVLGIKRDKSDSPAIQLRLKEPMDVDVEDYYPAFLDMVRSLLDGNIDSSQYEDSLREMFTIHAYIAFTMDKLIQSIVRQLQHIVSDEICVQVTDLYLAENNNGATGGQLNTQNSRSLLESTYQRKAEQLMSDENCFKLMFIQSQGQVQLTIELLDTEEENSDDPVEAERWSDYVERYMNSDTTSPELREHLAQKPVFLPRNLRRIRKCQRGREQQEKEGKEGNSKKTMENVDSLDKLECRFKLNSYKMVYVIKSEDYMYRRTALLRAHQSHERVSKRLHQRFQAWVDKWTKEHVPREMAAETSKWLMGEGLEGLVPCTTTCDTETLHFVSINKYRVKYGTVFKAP
The test can be described thus: proximity ligation.

For test [2], the target named is T2, endogenous HDAC7 (SW480 cells) (human (endogenous in SW480)) (UniProt Q8WUI4).
T2 sequence: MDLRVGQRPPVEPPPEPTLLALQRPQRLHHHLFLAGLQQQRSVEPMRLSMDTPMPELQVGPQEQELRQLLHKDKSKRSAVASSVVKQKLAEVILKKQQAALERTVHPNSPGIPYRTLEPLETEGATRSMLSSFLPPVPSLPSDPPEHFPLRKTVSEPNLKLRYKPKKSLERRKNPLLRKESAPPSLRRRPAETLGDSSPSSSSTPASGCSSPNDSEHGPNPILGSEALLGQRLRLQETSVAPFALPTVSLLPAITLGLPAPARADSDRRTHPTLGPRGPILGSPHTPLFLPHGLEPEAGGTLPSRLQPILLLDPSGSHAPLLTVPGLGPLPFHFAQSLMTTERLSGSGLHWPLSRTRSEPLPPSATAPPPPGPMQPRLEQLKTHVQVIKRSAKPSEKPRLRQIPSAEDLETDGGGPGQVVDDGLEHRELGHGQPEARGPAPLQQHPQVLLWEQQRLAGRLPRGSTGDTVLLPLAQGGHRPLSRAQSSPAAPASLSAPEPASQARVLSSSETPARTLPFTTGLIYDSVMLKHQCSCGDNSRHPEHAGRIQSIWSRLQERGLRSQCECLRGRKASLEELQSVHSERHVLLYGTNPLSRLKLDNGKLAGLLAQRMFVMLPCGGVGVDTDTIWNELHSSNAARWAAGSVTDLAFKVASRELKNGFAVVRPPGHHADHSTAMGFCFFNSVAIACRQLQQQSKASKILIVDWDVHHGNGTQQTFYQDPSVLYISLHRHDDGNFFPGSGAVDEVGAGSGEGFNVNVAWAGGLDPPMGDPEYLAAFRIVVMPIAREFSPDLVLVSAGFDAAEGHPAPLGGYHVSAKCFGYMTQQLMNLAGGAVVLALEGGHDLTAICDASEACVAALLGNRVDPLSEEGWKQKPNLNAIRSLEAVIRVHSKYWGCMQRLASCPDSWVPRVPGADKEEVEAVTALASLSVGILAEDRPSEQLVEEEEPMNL
The test can be described thus: proximity ligation.

A further test deals with T3, Myc-mSin3a (UniProt Q60520).
T3 sequence: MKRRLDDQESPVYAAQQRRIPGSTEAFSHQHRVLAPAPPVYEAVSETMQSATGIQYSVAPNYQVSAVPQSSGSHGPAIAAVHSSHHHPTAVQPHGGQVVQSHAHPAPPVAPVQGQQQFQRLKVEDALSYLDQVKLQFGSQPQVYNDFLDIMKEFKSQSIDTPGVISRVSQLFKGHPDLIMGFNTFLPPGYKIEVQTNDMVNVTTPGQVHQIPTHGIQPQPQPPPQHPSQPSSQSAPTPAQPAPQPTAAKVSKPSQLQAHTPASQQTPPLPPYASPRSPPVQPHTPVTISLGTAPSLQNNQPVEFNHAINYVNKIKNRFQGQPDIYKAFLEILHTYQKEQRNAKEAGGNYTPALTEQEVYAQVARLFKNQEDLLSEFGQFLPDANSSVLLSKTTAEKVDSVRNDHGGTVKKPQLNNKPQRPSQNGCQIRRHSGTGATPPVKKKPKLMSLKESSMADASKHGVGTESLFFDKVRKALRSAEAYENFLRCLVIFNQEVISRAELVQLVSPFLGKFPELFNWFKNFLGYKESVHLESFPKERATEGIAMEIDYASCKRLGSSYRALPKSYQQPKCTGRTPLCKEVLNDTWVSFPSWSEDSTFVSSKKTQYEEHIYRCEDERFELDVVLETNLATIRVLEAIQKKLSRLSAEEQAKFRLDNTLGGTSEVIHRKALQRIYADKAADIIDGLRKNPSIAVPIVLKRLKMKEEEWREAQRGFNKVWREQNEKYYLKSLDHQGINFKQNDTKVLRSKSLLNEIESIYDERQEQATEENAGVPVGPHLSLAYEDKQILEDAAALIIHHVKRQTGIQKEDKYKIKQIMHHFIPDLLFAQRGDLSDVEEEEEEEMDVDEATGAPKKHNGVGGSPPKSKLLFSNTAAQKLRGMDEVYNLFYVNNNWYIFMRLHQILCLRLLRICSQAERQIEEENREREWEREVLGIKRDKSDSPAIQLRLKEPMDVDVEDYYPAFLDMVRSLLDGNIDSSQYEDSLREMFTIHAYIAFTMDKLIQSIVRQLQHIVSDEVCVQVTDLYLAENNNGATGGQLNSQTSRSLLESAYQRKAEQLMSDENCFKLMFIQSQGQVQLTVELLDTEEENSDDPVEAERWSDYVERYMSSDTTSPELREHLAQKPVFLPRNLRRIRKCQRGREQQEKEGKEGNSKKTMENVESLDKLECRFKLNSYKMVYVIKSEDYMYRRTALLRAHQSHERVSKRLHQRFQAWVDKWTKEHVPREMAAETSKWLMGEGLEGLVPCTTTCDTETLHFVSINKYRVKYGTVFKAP
The test is described as follows: co-IP.

In the next test the target is T4, HDAC7-Flag (UniProt Q8WUI4).
T4 sequence: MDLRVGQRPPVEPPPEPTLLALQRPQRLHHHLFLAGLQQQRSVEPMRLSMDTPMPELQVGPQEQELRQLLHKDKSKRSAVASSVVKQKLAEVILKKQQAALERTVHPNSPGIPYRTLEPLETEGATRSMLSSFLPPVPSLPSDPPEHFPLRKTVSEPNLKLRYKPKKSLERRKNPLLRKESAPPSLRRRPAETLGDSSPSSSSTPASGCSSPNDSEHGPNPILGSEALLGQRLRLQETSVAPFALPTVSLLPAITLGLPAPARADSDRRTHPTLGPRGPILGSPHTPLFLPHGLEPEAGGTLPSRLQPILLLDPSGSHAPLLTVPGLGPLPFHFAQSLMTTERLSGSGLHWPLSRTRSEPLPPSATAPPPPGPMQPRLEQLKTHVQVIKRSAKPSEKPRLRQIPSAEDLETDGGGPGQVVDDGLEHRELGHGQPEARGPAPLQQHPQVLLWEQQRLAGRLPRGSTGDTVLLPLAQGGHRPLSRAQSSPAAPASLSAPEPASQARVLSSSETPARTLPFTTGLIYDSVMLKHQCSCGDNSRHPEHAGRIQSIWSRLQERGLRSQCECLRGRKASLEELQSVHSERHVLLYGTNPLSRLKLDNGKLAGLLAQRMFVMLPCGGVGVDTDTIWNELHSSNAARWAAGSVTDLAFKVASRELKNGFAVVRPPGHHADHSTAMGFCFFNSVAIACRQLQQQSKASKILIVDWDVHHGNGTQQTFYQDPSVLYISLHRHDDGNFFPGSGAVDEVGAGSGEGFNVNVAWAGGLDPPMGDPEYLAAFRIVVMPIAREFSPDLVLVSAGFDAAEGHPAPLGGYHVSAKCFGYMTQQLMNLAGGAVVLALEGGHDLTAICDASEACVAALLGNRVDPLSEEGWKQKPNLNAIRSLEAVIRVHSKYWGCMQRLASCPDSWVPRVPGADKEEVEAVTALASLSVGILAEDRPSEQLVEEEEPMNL
The test can be described thus: co-IP.

The target of test [3] is T1, endogenous mSin3a (SW480 cells) (human (endogenous in SW480)). The test can be described thus: co-IP.
Test [4] addresses murine Ascl2 fused to turbo-GFP (mouse) (UniProt O35885). The test can be described thus: pull-down.
Test [5] shares this target. The test can be described thus: co-IP.

For the molecule “endogenous Ascl2 (SW480 cells) (from UniProt Q99929 1-193)”, the binding entry in test [1] and in test [2] was “binds” throughout. With “murine Ascl2 fused to turbo-GFP (from UniProt O35885 1-263)”, the binding result in the test with Myc-mSin3a and in the test with HDAC7-Flag was “binds” each time.

B1: endogenous HDAC7 (SW480 cells) (enzyme, UniProt Q8WUI4 1-952)
chain: MDLRVGQRPPVEPPPEPTLLALQRPQRLHHHLFLAGLQQQRSVEPMRLSMDTPMPELQVGPQEQELRQLLHKDKSKRSAVASSVVKQKLAEVILKKQQAALERTVHPNSPGIPYRTLEPLETEGATRSMLSSFLPPVPSLPSDPPEHFPLRKTVSEPNLKLRYKPKKSLERRKNPLLRKESAPPSLRRRPAETLGDSSPSSSSTPASGCSSPNDSEHGPNPILGSEALLGQRLRLQETSVAPFALPTVSLLPAITLGLPAPARADSDRRTHPTLGPRGPILGSPHTPLFLPHGLEPEAGGTLPSRLQPILLLDPSGSHAPLLTVPGLGPLPFHFAQSLMTTERLSGSGLHWPLSRTRSEPLPPSATAPPPPGPMQPRLEQLKTHVQVIKRSAKPSEKPRLRQIPSAEDLETDGGGPGQVVDDGLEHRELGHGQPEARGPAPLQQHPQVLLWEQQRLAGRLPRGSTGDTVLLPLAQGGHRPLSRAQSSPAAPASLSAPEPASQARVLSSSETPARTLPFTTGLIYDSVMLKHQCSCGDNSRHPEHAGRIQSIWSRLQERGLRSQCECLRGRKASLEELQSVHSERHVLLYGTNPLSRLKLDNGKLAGLLAQRMFVMLPCGGVGVDTDTIWNELHSSNAARWAAGSVTDLAFKVASRELKNGFAVVRPPGHHADHSTAMGFCFFNSVAIACRQLQQQSKASKILIVDWDVHHGNGTQQTFYQDPSVLYISLHRHDDGNFFPGSGAVDEVGAGSGEGFNVNVAWAGGLDPPMGDPEYLAAFRIVVMPIAREFSPDLVLVSAGFDAAEGHPAPLGGYHVSAKCFGYMTQQLMNLAGGAVVLALEGGHDLTAICDASEACVAALLGNRVDPLSEEGWKQKPNLNAIRSLEAVIRVHSKYWGCMQRLASCPDSWVPRVPGADKEEVEAVTALASLSVGILAEDRPSEQLVEEEEPMNL
B1: the binding result in test [3] is listed as “binds”.

B2: Myc-tagged p57^Kip2 (protein, UniProt P49919 1-348)
chain: MGMSDVYLRSRTAMERLASSDTFPVIARSSACRSLFGPVDHEELGRELRMRLAELNAEDQNRWDFNFQQDVPLRGPGRLQWMEVDSESVPAFYRETVQVGRCRLQLGPRPPPVAVAVIPRSGPPAGEAPDGLEEAPEQPPSAPASAVVAEPTPPATPAPASDLTSDPIPEVTLVATSDPTPDPIPDANPDVATRDGEEQVPEQVSEQGEESGAEPGDELGTEPVSEQGEEQGAEPVEEKDEEPEEEQGAEPVEEQGAEPVEEQNGEPVEEQDENQEQRGQELKDQPLSGIPGRPAPGTAAANANDFFAKRKRTAQENKASNDVPPGCPSPNVAPGVGAVEQTPRKRLR
Take B2: the binding result in test [4] and in test [5] was “binds” each time.

The values above are taken from article doi:10.1101/2022.09.09.507138.
